# In the supplement of paper PMC8728848:
# Some of the results follow.
# B1: PX14343G-pdi-535-24-535 (Parabacteroides distasonis) (protein)
# chain: LDTVPKDQLAPSTTWQTEADAKGFIVGCYKDLLDGNTLLYLDCGSDIGYNNFPWEGFRPWGDGSLSSSNPGQILYDYKSIRKANTFLENVDKVTFSSDAVKANYVAQAKAIRAYKYFLMNWWYGGVPIISSYSSADEAKVERNTEQEVRDYIAKDLDEALAGIAEAPEARGYIAKGAVLAIKMREALYYGDWQKAKDAAKAIIDLKQYELDPDYTNLFKVSGVDSKEIILADQNIETLDGLGTIGQMYNNVDQGWSSIVPTQNLVDMYEMSDGLTKEESKTYDAKHPFANRDPRMAMTILYPGRDWRGDVLNTLDEKLQDGTVNKNFPTYTDNASKSALTWAKYLDPMDQYGDVWSSGACPIVFRYAEVLLTYAEAANELSGPSDEIYGYLNQIRQRVGMGEVDKAKYGTKDKLRELIRRERTVELAGEGLRRADIVRWQEDGKMLAEKVMNGDLLRVTGTINYGESEPTKRAEITGTAVIETRQFSSRNRYLPIPQTSMDKNPNLKQNPGY
# What was measured:
# Experiment in all cases: glycan array binding signal (z-score within array); higher = stronger binding
# Conditions in all cases: glycan notation: IUPAC condensed, linker removed
# [1] = target: Gal(b1-3)[Fuc(a1-4)]GlcNAc(b1-6)GalNAc
# Procedure, shortened: (§1)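 From the Consortium for Functional Glycomics database, 3228 arrays were curated, keeping only those whose protein sequence was available. Binding is given as a within-array Z-score averaged across arrays sharing a protein sequence and across linkers. Negative Z-scores can be read as non-binding.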
# [2] = target: Gal(b1-3)[GlcNAc(b1-6)]GalNAc
# Procedure, shortened: as §1
# [3] = target: Gal(b1-3)[Neu5Ac(a2-6)]GalNAc
# Procedure, shortened: as §1
# [4] = target: Gal(b1-3)[Neu5Ac(a2-6)]GlcNAc(b1-4)Gal(b1-4)Glc
# Procedure, shortened: as §1
# [5] = target: Gal(b1-3)[Neu5Ac(b2-6)]GalNAc
# Procedure, shortened: as §1
# Gal(b1-4)Gal = target: Gal(b1-4)Gal
# Procedure, shortened: as §1
# [6] = target: Gal(b1-4)GalNAc(a1-3)[Fuc(a1-2)]Gal(b1-4)GlcNAc
# Procedure, shortened: as §1
# [7] = target: Gal(b1-4)GalNAc(b1-3)[Fuc(a1-2)]Gal(b1-4)GlcNAc
# Procedure, shortened: as §1
# Gal(b1-4)Glc = target: Gal(b1-4)Glc
# Procedure, shortened: as §1
# Gal(b1-4)Glc6S = target: Gal(b1-4)Glc6S
# Procedure, shortened: as §1
# Gal(b1-4)GlcNAc = target: Gal(b1-4)GlcNAc
# Procedure, shortened: as §1
# [8] = target: Gal(b1-4)GlcNAc(a1-6)Gal(b1-4)GlcNAc
# Procedure, shortened: as §1
# Gal(b1-4)GlcNAc(b1-2)Man = target: Gal(b1-4)GlcNAc(b1-2)Man
# Procedure, shortened: as §1
# [9] = target: Gal(b1-4)GlcNAc(b1-2)Man(a1-3)Man(b1-4)GlcNAc(b1-4)GlcNAc
# Procedure, shortened: as §1
# [10] = target: Gal(b1-4)GlcNAc(b1-2)Man(a1-3)[Gal(b1-4)GlcNAc(b1-2)Man(a1-6)]Man(b1-4)GlcNAc(b1-4)GlcNAc
# Procedure, shortened: as §1
# [11] = target: Gal(b1-4)GlcNAc(b1-2)Man(a1-3)[Gal(b1-4)GlcNAc(b1-2)Man(a1-6)]Man(b1-4)GlcNAc(b1-4)[Fuc(a1-6)]GlcNAc
# Procedure, shortened: as §1
# [12] = target: Gal(b1-4)GlcNAc(b1-2)Man(a1-3)[Gal(b1-4)GlcNAc(b1-2)Man(a1-6)][Gal(b1-4)GlcNAc(b1-4)]Man(b1-4)GlcNAc(b1-4)[Fuc(a1-6)]GlcNAc
# Procedure, shortened: as §1
# [13] = target: Gal(b1-4)GlcNAc(b1-2)Man(a1-3)[Gal(b1-4)GlcNAc(b1-2)Man(a1-6)][GlcNAc(b1-4)]Man(b1-4)GlcNAc(b1-4)[Fuc(a1-6)]GlcNAc
# Procedure, shortened: as §1
# [14] = target: Gal(b1-4)GlcNAc(b1-2)Man(a1-3)[GlcNAc(b1-2)Man(a1-6)]Man(b1-4)GlcNAc(b1-4)GlcNAc
# Procedure, shortened: as §1
# [15] = target: Gal(b1-4)GlcNAc(b1-2)Man(a1-3)[GlcNAc(b1-4)][Gal(b1-4)GlcNAc(b1-2)Man(a1-6)]Man(b1-4)GlcNAc(b1-4)GlcNAc
# Procedure, shortened: as §1
# [16] = target: Gal(b1-4)GlcNAc(b1-2)Man(a1-3)[Man(a1-6)]Man(b1-4)GlcNAc(b1-4)GlcNAc
# Procedure, shortened: as §1
# [17] = target: Gal(b1-4)GlcNAc(b1-2)Man(a1-6)Man(b1-4)GlcNAc(b1-4)GlcNAc
# Procedure, shortened: as §1
# [18] = target: Gal(b1-4)GlcNAc(b1-2)Man(a1-6)[GlcNAc(b1-2)Man(a1-3)]Man(b1-4)GlcNAc(b1-4)GlcNAc
# Procedure, shortened: as §1
# [19] = target: Gal(b1-4)GlcNAc(b1-2)Man(a1-6)[Man(a1-3)]Man(b1-4)GlcNAc(b1-4)GlcNAc
# Procedure, shortened: as §1
# [20] = target: Gal(b1-4)GlcNAc(b1-2)[Gal(b1-4)GlcNAc(b1-4)]Man(a1-3)[Gal(b1-4)GlcNAc(b1-2)Man(a1-6)]Man(b1-4)GlcNAc(b1-4)GlcNAc
# Procedure, shortened: as §1
# [21] = target: Gal(b1-4)GlcNAc(b1-2)[Gal(b1-4)GlcNAc(b1-4)]Man(a1-3)[Gal(b1-4)GlcNAc(b1-2)[Gal(b1-4)GlcNAc(b1-6)]Man(a1-6)]Man(b1-4)GlcNAc(b1-4)GlcNAc
# Procedure, shortened: as §1
# [22] = target: Gal(b1-4)GlcNAc(b1-2)[Gal(b1-4)GlcNAc(b1-4)]Man(a1-3)[GlcNAc(b1-4)][Gal(b1-4)GlcNAc(b1-2)Man(a1-6)]Man(b1-4)GlcNAc(b1-4)GlcNAc
# Procedure, shortened: as §1
# [23] = target: Gal(b1-4)GlcNAc(b1-2)[Gal(b1-4)GlcNAc(b1-4)]Man(a1-3)[GlcNAc(b1-4)][Gal(b1-4)GlcNAc(b1-2)[Gal(b1-4)GlcNAc(b1-6)]Man(a1-6)]Man(b1-4)GlcNAc(b1-4)GlcNAc
# Procedure, shortened: as §1
# [24] = target: Gal(b1-4)GlcNAc(b1-2)[Gal(b1-4)GlcNAc(b1-6)]Man(a1-6)[Gal(b1-4)GlcNAc(b1-2)Man(a1-3)]Man(b1-4)GlcNAc(b1-4)GlcNAc
# Procedure, shortened: as §1
# [25] = target: Gal(b1-4)GlcNAc(b1-2)[Gal(b1-4)GlcNAc(b1-6)]Man(a1-6)[Gal(b1-4)GlcNAc(b1-2)Man(a1-3)]Man(b1-4)GlcNAc(b1-4)[Fuc(a1-6)]GlcNAc
# Procedure, shortened: as §1
# [26] = target: Gal(b1-4)GlcNAc(b1-2)[Gal(b1-4)GlcNAc(b1-6)]Man(a1-6)[GlcNAc(b1-4)][Gal(b1-4)GlcNAc(b1-2)Man(a1-3)]Man(b1-4)GlcNAc(b1-4)GlcNAc
# Procedure, shortened: as §1
# [27] = target: Gal(b1-4)GlcNAc(b1-2)[Gal(b1-4)GlcNAc(b1-6)]Man(a1-6)[GlcNAc(b1-4)][Gal(b1-4)GlcNAc(b1-2)[Gal(b1-4)GlcNAc(b1-4)]Man(a1-3)]Man(b1-4)GlcNAc(b1-4)[Fuc(a1-6)]GlcNAc
# Procedure, shortened: as §1
# [28] = target: Gal(b1-4)GlcNAc(b1-3)Gal(b1-3)GalNAc
# Procedure, shortened: as §1
# [29] = target: Gal(b1-4)GlcNAc(b1-3)Gal(b1-3)GlcNAc
# Procedure, shortened: as §1
# [30] = target: Gal(b1-4)GlcNAc(b1-3)Gal(b1-4)Glc
# Procedure, shortened: as §1
# [31] = target: Gal(b1-4)GlcNAc(b1-3)Gal(b1-4)GlcNAc
# Procedure, shortened: as §1
# [32] = target: Gal(b1-4)GlcNAc(b1-3)Gal(b1-4)GlcNAc(b1-2)Man(a1-3)[Gal(b1-4)GlcNAc(b1-3)Gal(b1-4)GlcNAc(b1-2)Man(a1-6)]Man(b1-4)GlcNAc(b1-4)GlcNAc
# Procedure, shortened: as §1
# [33] = target: Gal(b1-4)GlcNAc(b1-3)Gal(b1-4)GlcNAc(b1-2)Man(a1-3)[Gal(b1-4)GlcNAc(b1-3)Gal(b1-4)GlcNAc(b1-2)Man(a1-6)]Man(b1-4)GlcNAc(b1-4)[Fuc(a1-6)]GlcNAc
# Procedure, shortened: as §1
binder,measurement,setting,value
B1,glycan array binding signal (z-score),[1],-0.389
same,glycan array binding signal (z-score),[2],0.043
same,glycan array binding signal (z-score),[3],-0.295
same,glycan array binding signal (z-score),[4],-1.11
same,glycan array binding signal (z-score),[5],0.251
same,glycan array binding signal (z-score),Gal(b1-4)Gal,-0.782
same,glycan array binding signal (z-score),[6],-0.868
same,glycan array binding signal (z-score),[7],-0.339
same,glycan array binding signal (z-score),Gal(b1-4)Glc,-0.172
same,glycan array binding signal (z-score),Gal(b1-4)Glc6S,0.157
same,glycan array binding signal (z-score),Gal(b1-4)GlcNAc,-0.549
same,glycan array binding signal (z-score),[8],0.739
same,glycan array binding signal (z-score),Gal(b1-4)GlcNAc(b1-2)Man,-0.304
same,glycan array binding signal (z-score),[9],-1.1
same,glycan array binding signal (z-score),[10],-0.376
same,glycan array binding signal (z-score),[11],-0.363
same,glycan array binding signal (z-score),[12],-0.426
same,glycan array binding signal (z-score),[13],-0.515
same,glycan array binding signal (z-score),[14],-0.027
same,glycan array binding signal (z-score),[15],-0.997
same,glycan array binding signal (z-score),[16],0.32
same,glycan array binding signal (z-score),[17],-0.576
same,glycan array binding signal (z-score),[18],0.595
same,glycan array binding signal (z-score),[19],0.38
same,glycan array binding signal (z-score),[20],-0.511
same,glycan array binding signal (z-score),[21],-0.46
same,glycan array binding signal (z-score),[22],-0.359
same,glycan array binding signal (z-score),[23],-0.759
same,glycan array binding signal (z-score),[24],-0.615
same,glycan array binding signal (z-score),[25],0.224
same,glycan array binding signal (z-score),[26],-0.27
same,glycan array binding signal (z-score),[27],-1.17
same,glycan array binding signal (z-score),[28],-0.478
same,glycan array binding signal (z-score),[29],-0.588
same,glycan array binding signal (z-score),[30],0.341
same,glycan array binding signal (z-score),[31],-0.571
same,glycan array binding signal (z-score),[32],1.14
same,glycan array binding signal (z-score),[33],2.06

# Exported tab-delimited: entries from further up
binder	measurement	setting	value
B1	glycan array binding signal (z-score)	[23]	-0.759
same	glycan array binding signal (z-score)	[24]	-0.615
